This is a selection; strong and weak results do not stand in their true shares. The calls were merged from several studies; some rest on single wells. The list shows a part of the results.
How the values were obtained:
Conditions in all cases: stereoisomer not certain
OR51I1 (Homo sapiens) = target: T1, OR51I1 (Homo sapiens) (UniProt Q9H343)
T1 sequence (whole entry): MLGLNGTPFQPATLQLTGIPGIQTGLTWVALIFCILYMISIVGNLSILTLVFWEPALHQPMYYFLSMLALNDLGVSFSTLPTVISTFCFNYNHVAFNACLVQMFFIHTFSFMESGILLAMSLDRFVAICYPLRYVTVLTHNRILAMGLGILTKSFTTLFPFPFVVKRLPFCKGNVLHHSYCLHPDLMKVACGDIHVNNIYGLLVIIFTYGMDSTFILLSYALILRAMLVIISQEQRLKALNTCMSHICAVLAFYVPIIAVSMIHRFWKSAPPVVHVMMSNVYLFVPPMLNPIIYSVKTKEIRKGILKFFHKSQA
Procedure, shortened: (§1)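 Each entry records the cell line, G-protein, co-transfected protein and tags used. Methods varied with the source, often transient luciferase assays in mammalian cell lines. A receptor–molecule pair is called responsive (active) if the original authors judged its signal statistically different from baseline and non-responsive (inactive) otherwise.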

Chains of the proteins cited; added tags and fusions are not shown. Lines headed by an entry give the natural chain unless they say otherwise; changes in a name come on top.
UniProt Q9H342: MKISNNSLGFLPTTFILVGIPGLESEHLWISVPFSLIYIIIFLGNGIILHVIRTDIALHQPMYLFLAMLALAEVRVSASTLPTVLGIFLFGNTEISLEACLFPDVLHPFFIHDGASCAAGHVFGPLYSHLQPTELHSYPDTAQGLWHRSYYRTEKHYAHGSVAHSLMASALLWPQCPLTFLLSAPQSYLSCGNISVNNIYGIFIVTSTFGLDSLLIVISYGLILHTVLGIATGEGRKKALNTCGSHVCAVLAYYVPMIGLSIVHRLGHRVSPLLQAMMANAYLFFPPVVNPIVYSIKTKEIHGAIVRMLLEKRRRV
UniProt Q9H2C8: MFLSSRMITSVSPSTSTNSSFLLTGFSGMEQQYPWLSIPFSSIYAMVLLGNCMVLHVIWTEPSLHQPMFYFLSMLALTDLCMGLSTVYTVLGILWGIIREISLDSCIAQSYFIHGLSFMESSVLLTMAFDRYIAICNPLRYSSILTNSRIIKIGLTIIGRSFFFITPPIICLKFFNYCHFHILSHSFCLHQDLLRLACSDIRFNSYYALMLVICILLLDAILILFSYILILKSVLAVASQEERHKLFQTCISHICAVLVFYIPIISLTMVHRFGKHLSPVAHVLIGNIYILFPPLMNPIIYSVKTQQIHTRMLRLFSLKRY
UniProt Q8NGJ4: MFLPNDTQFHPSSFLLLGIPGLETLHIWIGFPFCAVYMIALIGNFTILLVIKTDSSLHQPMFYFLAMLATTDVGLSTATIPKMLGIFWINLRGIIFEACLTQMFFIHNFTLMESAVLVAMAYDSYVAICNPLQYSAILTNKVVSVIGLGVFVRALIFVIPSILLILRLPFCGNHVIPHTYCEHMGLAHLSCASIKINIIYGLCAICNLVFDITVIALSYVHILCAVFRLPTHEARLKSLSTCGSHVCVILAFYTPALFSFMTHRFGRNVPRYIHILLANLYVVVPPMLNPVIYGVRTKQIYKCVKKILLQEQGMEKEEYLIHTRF
UniProt Q8NGH9: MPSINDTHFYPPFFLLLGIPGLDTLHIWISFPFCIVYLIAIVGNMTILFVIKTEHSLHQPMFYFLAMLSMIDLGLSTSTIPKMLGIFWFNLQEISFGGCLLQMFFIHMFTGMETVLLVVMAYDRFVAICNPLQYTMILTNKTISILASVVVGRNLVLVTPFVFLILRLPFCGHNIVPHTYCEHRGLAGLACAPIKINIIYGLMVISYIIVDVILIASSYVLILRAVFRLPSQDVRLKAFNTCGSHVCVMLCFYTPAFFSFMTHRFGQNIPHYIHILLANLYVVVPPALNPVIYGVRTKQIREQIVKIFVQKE
UniProt Q8NH55: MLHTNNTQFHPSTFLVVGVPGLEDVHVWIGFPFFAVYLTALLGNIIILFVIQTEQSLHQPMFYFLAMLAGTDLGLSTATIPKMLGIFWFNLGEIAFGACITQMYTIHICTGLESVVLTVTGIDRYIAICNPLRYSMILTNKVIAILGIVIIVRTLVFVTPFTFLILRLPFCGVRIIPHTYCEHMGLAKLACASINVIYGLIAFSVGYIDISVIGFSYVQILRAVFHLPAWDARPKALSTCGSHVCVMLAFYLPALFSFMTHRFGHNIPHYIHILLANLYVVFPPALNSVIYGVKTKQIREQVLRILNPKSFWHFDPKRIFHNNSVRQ

OR51I2 (Homo sapiens) = target: T2, OR51I2 (Homo sapiens) (UniProt Q9H344)
T2 sequence (whole entry): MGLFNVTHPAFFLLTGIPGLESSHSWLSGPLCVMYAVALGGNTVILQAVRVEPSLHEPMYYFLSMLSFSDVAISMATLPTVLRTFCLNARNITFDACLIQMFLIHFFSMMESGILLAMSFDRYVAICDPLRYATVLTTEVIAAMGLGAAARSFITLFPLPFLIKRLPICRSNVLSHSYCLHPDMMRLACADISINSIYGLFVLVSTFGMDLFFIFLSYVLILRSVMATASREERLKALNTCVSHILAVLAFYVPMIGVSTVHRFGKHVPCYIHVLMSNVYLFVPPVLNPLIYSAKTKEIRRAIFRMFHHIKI
Procedure, shortened: as §1

OR51L1 (Homo sapiens) = target: T3, OR51L1 (Homo sapiens) (UniProt Q8NGJ5)
T3 sequence (whole entry): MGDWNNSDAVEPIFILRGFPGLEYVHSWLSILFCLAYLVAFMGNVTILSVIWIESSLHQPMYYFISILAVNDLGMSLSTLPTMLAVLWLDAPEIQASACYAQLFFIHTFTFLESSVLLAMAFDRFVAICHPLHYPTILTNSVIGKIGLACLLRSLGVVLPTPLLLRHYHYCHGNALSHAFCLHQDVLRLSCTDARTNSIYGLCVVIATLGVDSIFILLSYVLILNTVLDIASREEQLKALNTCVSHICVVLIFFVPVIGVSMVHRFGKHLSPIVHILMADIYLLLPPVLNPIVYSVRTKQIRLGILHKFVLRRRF
Procedure, shortened: as §1

OR51S1 (Homo sapiens) = target: T4, OR51S1 (Homo sapiens) (UniProt Q8NGJ8)
T4 sequence (whole entry): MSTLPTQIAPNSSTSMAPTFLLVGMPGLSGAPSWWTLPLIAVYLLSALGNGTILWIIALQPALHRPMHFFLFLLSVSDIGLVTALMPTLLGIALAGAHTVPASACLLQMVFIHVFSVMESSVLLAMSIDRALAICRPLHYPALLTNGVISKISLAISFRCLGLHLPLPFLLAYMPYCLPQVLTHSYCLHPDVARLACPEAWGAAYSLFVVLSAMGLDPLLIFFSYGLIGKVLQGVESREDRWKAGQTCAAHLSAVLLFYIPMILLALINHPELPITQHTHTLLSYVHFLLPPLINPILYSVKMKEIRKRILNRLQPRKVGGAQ
Procedure, shortened: as §1

OR52A4P (Homo sapiens) = target: T5, OR52A4P (Homo sapiens) (UniProt A6NMU1)
T5 sequence (whole entry): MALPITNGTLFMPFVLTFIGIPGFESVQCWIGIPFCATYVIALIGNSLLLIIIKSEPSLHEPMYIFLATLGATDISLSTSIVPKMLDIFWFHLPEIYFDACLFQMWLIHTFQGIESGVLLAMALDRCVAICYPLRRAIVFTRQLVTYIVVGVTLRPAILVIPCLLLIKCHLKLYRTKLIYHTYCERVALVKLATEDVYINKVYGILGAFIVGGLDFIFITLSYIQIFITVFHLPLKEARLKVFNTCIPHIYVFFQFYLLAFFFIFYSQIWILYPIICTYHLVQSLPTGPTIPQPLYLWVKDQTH
Procedure, shortened: as §1

OR52A5 (Homo sapiens) = target: T6, OR52A5 (Homo sapiens) (UniProt Q9H2C5)
T6 sequence (whole entry): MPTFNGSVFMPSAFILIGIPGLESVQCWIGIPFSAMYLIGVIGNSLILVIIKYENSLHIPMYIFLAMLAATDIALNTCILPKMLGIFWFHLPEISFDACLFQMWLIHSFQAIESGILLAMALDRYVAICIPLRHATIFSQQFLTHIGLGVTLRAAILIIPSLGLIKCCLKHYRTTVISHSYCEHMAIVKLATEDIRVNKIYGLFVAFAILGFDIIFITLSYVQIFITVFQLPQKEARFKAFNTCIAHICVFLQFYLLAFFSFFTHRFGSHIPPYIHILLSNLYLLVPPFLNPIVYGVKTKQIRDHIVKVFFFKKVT
Procedure, shortened: as §1

OR52B4 (Homo sapiens) = target: T7, OR52B4 (Homo sapiens) (UniProt Q8NGK2)
T7 sequence (whole entry): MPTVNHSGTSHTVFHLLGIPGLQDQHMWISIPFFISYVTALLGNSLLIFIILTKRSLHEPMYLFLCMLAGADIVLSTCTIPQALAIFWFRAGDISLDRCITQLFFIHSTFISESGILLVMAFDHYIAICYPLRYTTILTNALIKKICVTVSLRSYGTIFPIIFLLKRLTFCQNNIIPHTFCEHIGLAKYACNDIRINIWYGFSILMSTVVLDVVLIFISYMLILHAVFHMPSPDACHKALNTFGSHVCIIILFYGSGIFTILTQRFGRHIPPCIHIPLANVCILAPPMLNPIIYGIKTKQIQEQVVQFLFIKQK
Procedure, shortened: as §1

OR52D1 (Homo sapiens) = target: T8, OR52D1 (Homo sapiens) (UniProt Q9H346)
T8 sequence (whole entry): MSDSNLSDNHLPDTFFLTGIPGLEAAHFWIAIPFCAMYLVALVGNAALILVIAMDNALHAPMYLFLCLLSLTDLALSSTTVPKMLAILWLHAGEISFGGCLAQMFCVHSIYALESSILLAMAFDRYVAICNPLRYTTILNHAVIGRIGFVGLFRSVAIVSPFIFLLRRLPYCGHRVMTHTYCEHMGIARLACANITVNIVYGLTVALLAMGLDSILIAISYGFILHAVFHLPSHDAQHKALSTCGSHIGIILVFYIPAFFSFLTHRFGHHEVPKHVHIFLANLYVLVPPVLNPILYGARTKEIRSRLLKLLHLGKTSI
Procedure, shortened: as §1

OR51J1 (Homo sapiens) = OR51J1 (Homo sapiens) (UniProt Q9H342)
Procedure, shortened: as §1

OR51M1 (Homo sapiens) = target: T9, OR51M1 (Homo sapiens) (UniProt Q9H341)
T9 sequence (whole entry): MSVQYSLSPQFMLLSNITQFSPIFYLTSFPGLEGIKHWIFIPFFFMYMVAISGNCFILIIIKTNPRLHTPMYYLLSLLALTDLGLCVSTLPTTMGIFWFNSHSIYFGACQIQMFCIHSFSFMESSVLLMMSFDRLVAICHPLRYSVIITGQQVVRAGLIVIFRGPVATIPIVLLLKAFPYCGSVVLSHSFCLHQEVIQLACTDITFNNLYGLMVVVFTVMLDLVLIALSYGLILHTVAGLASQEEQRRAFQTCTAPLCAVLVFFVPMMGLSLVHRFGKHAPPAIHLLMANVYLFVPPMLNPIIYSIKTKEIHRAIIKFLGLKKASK
Procedure, shortened: as §1

OR51Q1 (Homo sapiens) = target: T10, OR51Q1 (Homo sapiens) (UniProt Q8NH59)
T10 sequence (whole entry): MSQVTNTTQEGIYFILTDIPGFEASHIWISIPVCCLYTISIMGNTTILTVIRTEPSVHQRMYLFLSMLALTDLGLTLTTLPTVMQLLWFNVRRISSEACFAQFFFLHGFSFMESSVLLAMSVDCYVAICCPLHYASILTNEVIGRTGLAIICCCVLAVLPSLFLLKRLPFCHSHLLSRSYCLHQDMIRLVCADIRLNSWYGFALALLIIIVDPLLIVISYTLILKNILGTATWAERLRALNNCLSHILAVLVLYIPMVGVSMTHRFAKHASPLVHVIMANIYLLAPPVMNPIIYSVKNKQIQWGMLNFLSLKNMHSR
Procedure, shortened: as §1

OR51T1 (Homo sapiens) = target: T11, OR51T1 (Homo sapiens) (UniProt Q8NGJ9)
T11 sequence (whole entry): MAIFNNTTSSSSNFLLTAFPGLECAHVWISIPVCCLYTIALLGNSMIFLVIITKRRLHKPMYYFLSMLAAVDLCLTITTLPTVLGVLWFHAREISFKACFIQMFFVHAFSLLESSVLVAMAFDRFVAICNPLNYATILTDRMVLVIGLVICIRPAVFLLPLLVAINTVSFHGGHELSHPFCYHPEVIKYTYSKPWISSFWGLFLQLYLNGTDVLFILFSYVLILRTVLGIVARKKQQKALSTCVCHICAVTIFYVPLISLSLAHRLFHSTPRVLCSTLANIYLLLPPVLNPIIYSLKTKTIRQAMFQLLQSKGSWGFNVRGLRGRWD
Procedure, shortened: as §1

OR51V1 (Homo sapiens) = OR51V1 (Homo sapiens) (UniProt Q9H2C8)
Procedure, shortened: as §1

OR52A1 (Homo sapiens) = target: T12, OR52A1 (Homo sapiens) (UniProt Q9UKL2)
T12 sequence (whole entry): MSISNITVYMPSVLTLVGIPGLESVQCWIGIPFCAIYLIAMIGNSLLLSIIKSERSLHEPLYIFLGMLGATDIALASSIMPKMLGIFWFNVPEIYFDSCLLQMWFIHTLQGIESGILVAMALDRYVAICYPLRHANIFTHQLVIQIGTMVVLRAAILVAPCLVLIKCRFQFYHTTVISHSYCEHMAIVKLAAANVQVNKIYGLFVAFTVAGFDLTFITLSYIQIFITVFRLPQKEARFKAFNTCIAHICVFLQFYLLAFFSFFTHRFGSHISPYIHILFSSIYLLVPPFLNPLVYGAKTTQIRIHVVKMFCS
Procedure, shortened: as §1

OR52B2 (Homo sapiens) = target: T13, OR52B2 (Homo sapiens) (UniProt Q96RD2)
T13 sequence (whole entry): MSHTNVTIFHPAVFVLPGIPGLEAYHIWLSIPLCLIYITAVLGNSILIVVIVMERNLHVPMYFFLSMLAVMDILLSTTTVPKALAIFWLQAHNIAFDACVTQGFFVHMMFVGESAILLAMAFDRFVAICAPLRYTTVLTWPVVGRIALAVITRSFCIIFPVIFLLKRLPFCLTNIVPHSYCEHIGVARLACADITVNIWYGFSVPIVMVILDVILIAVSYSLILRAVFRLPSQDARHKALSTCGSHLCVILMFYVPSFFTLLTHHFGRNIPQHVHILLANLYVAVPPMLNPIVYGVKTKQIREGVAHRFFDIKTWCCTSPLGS
Procedure, shortened: as §1

OR52B6 (Homo sapiens) = target: T14, OR52B6 (Homo sapiens) (UniProt Q8NGF0)
T14 sequence (whole entry): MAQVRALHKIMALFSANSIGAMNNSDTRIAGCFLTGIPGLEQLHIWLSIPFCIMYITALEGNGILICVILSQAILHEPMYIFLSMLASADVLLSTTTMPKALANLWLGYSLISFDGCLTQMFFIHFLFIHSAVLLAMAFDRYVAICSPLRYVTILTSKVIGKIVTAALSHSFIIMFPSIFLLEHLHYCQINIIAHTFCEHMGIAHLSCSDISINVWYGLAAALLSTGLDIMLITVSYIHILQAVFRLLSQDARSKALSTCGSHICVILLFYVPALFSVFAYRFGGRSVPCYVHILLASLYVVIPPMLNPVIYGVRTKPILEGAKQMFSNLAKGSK
Procedure, shortened: as §1

OR52E2 (Homo sapiens) = OR52E2 (Homo sapiens) (UniProt Q8NGJ4)
Procedure, shortened: as §1

OR52E4 (Homo sapiens) = OR52E4 (Homo sapiens) (UniProt Q8NGH9)
Procedure, shortened: as §1

OR52E5 (Homo sapiens) = OR52E5 (Homo sapiens) (UniProt Q8NH55)
Procedure, shortened: as §1

Measured: odorant receptor agonist call

O=C1CCCCCCCCCCCCCCO1
inactive: OR51I1 (Homo sapiens) | OR51I2 (Homo sapiens) | OR51L1 (Homo sapiens) | OR51S1 (Homo sapiens) | OR52A4P (Homo sapiens) | OR52A5 (Homo sapiens) | OR52B4 (Homo sapiens) | OR52D1 (Homo sapiens)

COc1cc(C)ccc1O
inactive: OR51I1 (Homo sapiens) | OR51I2 (Homo sapiens) | OR51L1 (Homo sapiens) | OR51S1 (Homo sapiens) | OR52A4P (Homo sapiens) | OR52A5 (Homo sapiens) | OR52B4 (Homo sapiens) | OR52D1 (Homo sapiens)

CCCC(=O)O
not listed: OR51S1 (Homo sapiens) | OR52D1 (Homo sapiens)
inactive: all other assays above

CC1=CCC(C(C)(C)O)CC1 (centres undefined)
inactive: OR51I2 (Homo sapiens) | OR51L1 (Homo sapiens) | OR51S1 (Homo sapiens) | OR52A4P (Homo sapiens) | OR52A5 (Homo sapiens) | OR52B4 (Homo sapiens) | OR52D1 (Homo sapiens)
active: OR51I1 (Homo sapiens)

O=CCc1ccccc1
active: OR51I1 (Homo sapiens) | OR51L1 (Homo sapiens) | OR51S1 (Homo sapiens) | OR52A4P (Homo sapiens) | OR52A5 (Homo sapiens)
inactive: OR51I2 (Homo sapiens) | OR52B4 (Homo sapiens) | OR52D1 (Homo sapiens)

— the M2OR odorant receptor database
